Experimental data reported in paper PMC5341030.
The exact form of at least one protein or probe is not confirmed. Weaker means in comparison with the reference protein, sequence or condition of that experiment. At least one verdict rests on a figure or table, not on a statement of the authors.

Protein sequences, listed by entry. Tags and fused reporters are not part of them. Lines headed by an entry give the natural chain unless they say otherwise; changes in a name come on top.
UniProt Q7G1L2: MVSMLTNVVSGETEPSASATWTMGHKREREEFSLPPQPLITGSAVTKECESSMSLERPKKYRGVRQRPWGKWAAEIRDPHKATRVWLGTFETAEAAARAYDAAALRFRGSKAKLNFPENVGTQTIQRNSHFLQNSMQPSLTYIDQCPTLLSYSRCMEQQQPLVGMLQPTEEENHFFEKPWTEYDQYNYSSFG

Molecular target: RAP2.6 (His-HA-RAP2.6) (Arabidopsis thaliana) (UniProt Q7G1L2)
Assay: EMSA
Conditions: 10 mM Tris, 50 mM KCl, 1 mM DTT, 1 ug poly(dI-dC), pH 7.5, 20 ul, room temperature 20 min, 6% PAGE in 0.5x TBE, recombinant protein, residues 1-192, protein details: His-HA (N-terminal, pET28a), label: biotin

“GGAATTCAGCCGCCAGCCGCCAGCCGCCAGCCGCCTCTAGAGC (double strand) [4xGCC element (GCC-box)]”: binds (no RACK1B, 0.5 ug RAP2.6, 100 fmol probe); binds more weakly (with increasing RACK1B (P2): binding decreased).

“GGAATTCTGCCACCGGTGCCACCGGTGCCACCGGTGCCACCGGTCTAGAGC (double strand) [4xCE1 element]”: binds (no RACK1B, 1 ug RAP2.6, 50 fmol probe); binds (with increasing RACK1B (P2): binding gradually improved).
